In paper PMC9652321, “Structural basis of human SNAPc recognizing proximal sequence element of snRNA promoter” one finds binding data, which are given here for ten molecules.

For test [1], the target named is T1, MBP tagged SNAP190 (residues 1-143) (human) (UniProt Q5SXM2).
T1 sequence: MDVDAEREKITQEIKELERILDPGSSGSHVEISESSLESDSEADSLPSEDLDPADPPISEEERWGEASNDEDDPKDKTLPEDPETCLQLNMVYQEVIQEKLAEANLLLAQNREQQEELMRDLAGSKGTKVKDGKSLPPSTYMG
Put plainly: SEC; rod module mSNAPc#11 co-expressed in E. coli; Strep-Tactin resin by Strep-SNAP19, then Superose 6 increase column, 4 °C, 150 mM NaCl, 20 mM HEPES Na+ pH 7.5; both purified.

The target of test [2] is T2, Strep tagged full-length SNAP19 (human) (UniProt O75971).
T2 sequence: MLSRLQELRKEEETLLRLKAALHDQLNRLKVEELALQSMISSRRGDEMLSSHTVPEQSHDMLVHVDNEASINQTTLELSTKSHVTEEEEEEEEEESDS
The test is described as above.

Test [3] has as its target T3, SNAP190 (residues 1-505), N-terminal FLAG tagged (human) (UniProt Q5SXM2).
T3 sequence: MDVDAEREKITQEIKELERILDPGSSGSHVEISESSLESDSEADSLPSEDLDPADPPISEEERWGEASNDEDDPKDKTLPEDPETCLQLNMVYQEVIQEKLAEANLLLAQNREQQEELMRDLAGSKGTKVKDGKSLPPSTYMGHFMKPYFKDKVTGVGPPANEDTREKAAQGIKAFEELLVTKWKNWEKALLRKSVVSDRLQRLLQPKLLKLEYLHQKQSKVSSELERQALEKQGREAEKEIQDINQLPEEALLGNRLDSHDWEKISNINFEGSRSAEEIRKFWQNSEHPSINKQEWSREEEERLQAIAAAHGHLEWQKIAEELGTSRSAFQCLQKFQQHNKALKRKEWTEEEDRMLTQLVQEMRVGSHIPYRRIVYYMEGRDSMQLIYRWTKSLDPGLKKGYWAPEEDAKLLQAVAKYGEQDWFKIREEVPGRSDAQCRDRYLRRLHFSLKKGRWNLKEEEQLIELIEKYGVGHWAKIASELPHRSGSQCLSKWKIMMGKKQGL
Put plainly: SEC; subunits co-expressed in Sf9 cells (mSNAPc#1, mSNAPc#2), anti-FLAG M2 affinity by FLAG-SNAP190(1-505), then Superose 6 increase gel filtration, 4 °C, 100 mM KCl, 25 mM HEPES K+ pH 7.6; both purified.

For test [4], the target named is T4, SNAP190^(140-505) (extreme NTD deletion), N-terminal FLAG tag (human) (UniProt Q5SXM2).
T4 sequence: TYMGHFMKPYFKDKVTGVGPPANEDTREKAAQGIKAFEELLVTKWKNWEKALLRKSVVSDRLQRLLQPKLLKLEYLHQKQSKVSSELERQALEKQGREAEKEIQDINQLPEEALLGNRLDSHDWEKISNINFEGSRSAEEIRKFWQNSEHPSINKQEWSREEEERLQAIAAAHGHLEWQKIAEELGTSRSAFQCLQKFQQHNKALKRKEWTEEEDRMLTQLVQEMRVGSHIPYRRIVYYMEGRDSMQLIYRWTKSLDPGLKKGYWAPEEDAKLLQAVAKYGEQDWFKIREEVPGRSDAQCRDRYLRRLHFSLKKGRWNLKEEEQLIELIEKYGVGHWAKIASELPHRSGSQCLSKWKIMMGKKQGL
Kind of test: co-IP; truncated subunits co-expressed in Sf9 cells (mSNAPc#3 to #9); lysate supernatant on anti-FLAG M2 resin (bait FLAG-SNAP190 constructs), eluted with 500 μM FLAG peptide; Western blot against FLAG, Strep and TEV cleavage site.

Test [5] has as its target T3, SNAP190 (residues 1-505), N-terminal FLAG tagged (human). Put plainly: cryo-EM structure; 6.7 μM mSNAPc#2 incubated with 35 bp human U6-1 PSE dsDNA at 1:2.5 molar ratio, 100 mM KCl, 25 mM HEPES K+ pH 7.6, 12.5 mM MgCl2, 10 μM ZnCl2, 30 min at 4 °C; 3.49 Å; both purified.
For test [6], the target named is T5, SNAP50^(1-351) (wedge domain deletion), N-terminal Strep tag (human) (UniProt Q92966).
T5 sequence: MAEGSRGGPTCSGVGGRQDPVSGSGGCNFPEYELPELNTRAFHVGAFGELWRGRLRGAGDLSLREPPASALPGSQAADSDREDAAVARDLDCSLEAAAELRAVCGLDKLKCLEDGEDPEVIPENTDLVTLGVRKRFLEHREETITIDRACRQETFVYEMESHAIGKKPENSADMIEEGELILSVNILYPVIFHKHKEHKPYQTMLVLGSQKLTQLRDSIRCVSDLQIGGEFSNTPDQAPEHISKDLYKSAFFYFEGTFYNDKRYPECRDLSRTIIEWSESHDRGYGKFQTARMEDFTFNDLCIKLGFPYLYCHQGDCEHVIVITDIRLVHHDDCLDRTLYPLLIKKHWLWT
Kind of test: co-IP; truncated subunits co-expressed in Sf9 cells (mSNAPc#3 to #9); lysate supernatant on anti-FLAG M2 resin (bait FLAG-SNAP190 constructs), eluted with 500 μM FLAG peptide; Western blot against FLAG, Strep and TEV cleavage site.

Test [7] addresses T6, SNAP50^(1-411) (full length), N-terminal Strep tag (human) (UniProt Q92966).
T6 sequence: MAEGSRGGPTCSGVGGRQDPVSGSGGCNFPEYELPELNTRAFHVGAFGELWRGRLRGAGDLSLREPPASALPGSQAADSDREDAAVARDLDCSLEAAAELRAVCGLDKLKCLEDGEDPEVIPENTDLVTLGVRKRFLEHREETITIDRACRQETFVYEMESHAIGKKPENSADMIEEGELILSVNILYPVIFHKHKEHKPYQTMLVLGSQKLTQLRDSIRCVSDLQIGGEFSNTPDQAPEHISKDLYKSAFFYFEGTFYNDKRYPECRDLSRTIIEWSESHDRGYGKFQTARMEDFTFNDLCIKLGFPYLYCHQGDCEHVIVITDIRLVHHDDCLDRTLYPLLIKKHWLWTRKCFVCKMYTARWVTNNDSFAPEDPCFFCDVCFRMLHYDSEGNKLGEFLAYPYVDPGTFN
Described as above.

Another test addresses T7, SNAP50, untagged (human) (UniProt Q92966).
T7 sequence: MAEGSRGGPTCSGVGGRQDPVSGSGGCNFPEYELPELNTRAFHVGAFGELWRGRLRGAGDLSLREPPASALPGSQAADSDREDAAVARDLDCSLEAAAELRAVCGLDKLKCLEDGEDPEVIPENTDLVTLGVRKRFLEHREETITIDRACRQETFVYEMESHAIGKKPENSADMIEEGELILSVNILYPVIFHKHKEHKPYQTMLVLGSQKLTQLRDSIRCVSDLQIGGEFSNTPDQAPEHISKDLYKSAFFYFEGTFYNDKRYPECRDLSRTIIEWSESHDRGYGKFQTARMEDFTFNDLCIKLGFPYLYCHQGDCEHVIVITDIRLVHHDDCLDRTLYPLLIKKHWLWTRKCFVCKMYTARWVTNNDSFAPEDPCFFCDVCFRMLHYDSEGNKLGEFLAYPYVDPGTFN
Kind of test: cryo-EM structure; 6.7 μM mSNAPc#2 incubated with 35 bp human U6-1 PSE dsDNA at 1:2.5 molar ratio, 100 mM KCl, 25 mM HEPES K+ pH 7.6, 12.5 mM MgCl2, 10 μM ZnCl2, 30 min at 4 °C; 3.49 Å; both purified.

These are yes or no findings as the source states them, for the method shown. For some assays here: Binding seen in cells or lysates may run through a third protein. Some entries that bind do so weakly or less than the wild type. Tags and fused reporters may be left off the sequences shown.

B1: SNAP43 (residues 148-268) with N-terminal MBP tag (domain or fragment, UniProt Q16533 148-268)
chain: MKKKIHRAEVTEEFKDPSDRVMKLITSDVLEEMLNVHDHYQNMKHVISVDKSKPDKALSLIKDDFFDNIKNIVLEHQQWHKDRKNPSLKSKTNDGEEKMEGNSQETERCERAESLAKIKSK
For the molecule B1, the binding result in test [1] and in test [2] was “binds” throughout.

B2: SNAP19, untagged (protein, UniProt O75971 1-98)
chain: MLSRLQELRKEEETLLRLKAALHDQLNRLKVEELALQSMISSRRGDEMLSSHTVPEQSHDMLVHVDNEASINQTTLELSTKSHVTEEEEEEEEEESDS
Regarding B2, the binding entry in test [3] is “binds”.

B3: SNAP43 (full-length), N-terminal 6xHis tagged (protein, UniProt Q16533 1-368)
chain: MGTPPGLQTDCEALLSRFQETDSVRFEDFTELWRNMKFGTIFCGRMRNLEKNMFTKEALALAWRYFLPPYTFQIRVGALYLLYGLYNTQLCQPKQKIRVALKDWDEVLKFQQDLVNAQHFDAAYIFRKLRLDRAFHFTAMPKLLSYRMKKKIHRAEVTEEFKDPSDRVMKLITSDVLEEMLNVHDHYQNMKHVISVDKSKPDKALSLIKDDFFDNIKNIVLEHQQWHKDRKNPSLKSKTNDGEEKMEGNSQETERCERAESLAKIKSKAFSVVIQASKSRRHRQVKLDSSDSDSASGQGQVKATRKKEKKERLKPAGRKMSLRNKGNVQNIHKEDKPLSLSMPVITEEEENESLSGTEFTASKKRRKH
Turning to B3, in test [3], the binding entry is “binds”.

B4: SNAP50^(1-351) (wedge domain deletion), N-terminal Strep tag (domain or fragment, UniProt Q92966 1-351)
chain: MAEGSRGGPTCSGVGGRQDPVSGSGGCNFPEYELPELNTRAFHVGAFGELWRGRLRGAGDLSLREPPASALPGSQAADSDREDAAVARDLDCSLEAAAELRAVCGLDKLKCLEDGEDPEVIPENTDLVTLGVRKRFLEHREETITIDRACRQETFVYEMESHAIGKKPENSADMIEEGELILSVNILYPVIFHKHKEHKPYQTMLVLGSQKLTQLRDSIRCVSDLQIGGEFSNTPDQAPEHISKDLYKSAFFYFEGTFYNDKRYPECRDLSRTIIEWSESHDRGYGKFQTARMEDFTFNDLCIKLGFPYLYCHQGDCEHVIVITDIRLVHHDDCLDRTLYPLLIKKHWLWT
As for B4, in test [4], the binding result is given as “binds”.

B5: MBP tagged SNAP190 (residues 1-143) (domain or fragment, UniProt Q5SXM2 1-143)
chain: MDVDAEREKITQEIKELERILDPGSSGSHVEISESSLESDSEADSLPSEDLDPADPPISEEERWGEASNDEDDPKDKTLPEDPETCLQLNMVYQEVIQEKLAEANLLLAQNREQQEELMRDLAGSKGTKVKDGKSLPPSTYMG
Regarding B5, the binding entry in test [2] is “binds”.

B6: SNAP50, untagged (protein, UniProt Q92966 1-411)
chain: MAEGSRGGPTCSGVGGRQDPVSGSGGCNFPEYELPELNTRAFHVGAFGELWRGRLRGAGDLSLREPPASALPGSQAADSDREDAAVARDLDCSLEAAAELRAVCGLDKLKCLEDGEDPEVIPENTDLVTLGVRKRFLEHREETITIDRACRQETFVYEMESHAIGKKPENSADMIEEGELILSVNILYPVIFHKHKEHKPYQTMLVLGSQKLTQLRDSIRCVSDLQIGGEFSNTPDQAPEHISKDLYKSAFFYFEGTFYNDKRYPECRDLSRTIIEWSESHDRGYGKFQTARMEDFTFNDLCIKLGFPYLYCHQGDCEHVIVITDIRLVHHDDCLDRTLYPLLIKKHWLWTRKCFVCKMYTARWVTNNDSFAPEDPCFFCDVCFRMLHYDSEGNKLGEFLAYPYVDPGTFN
With B6, the binding entry in test [3] and in test [5] was “binds” throughout.

B7: SNAP50^(1-411) (full length), N-terminal Strep tag (protein, UniProt Q92966 1-411)
chain: MAEGSRGGPTCSGVGGRQDPVSGSGGCNFPEYELPELNTRAFHVGAFGELWRGRLRGAGDLSLREPPASALPGSQAADSDREDAAVARDLDCSLEAAAELRAVCGLDKLKCLEDGEDPEVIPENTDLVTLGVRKRFLEHREETITIDRACRQETFVYEMESHAIGKKPENSADMIEEGELILSVNILYPVIFHKHKEHKPYQTMLVLGSQKLTQLRDSIRCVSDLQIGGEFSNTPDQAPEHISKDLYKSAFFYFEGTFYNDKRYPECRDLSRTIIEWSESHDRGYGKFQTARMEDFTFNDLCIKLGFPYLYCHQGDCEHVIVITDIRLVHHDDCLDRTLYPLLIKKHWLWTRKCFVCKMYTARWVTNNDSFAPEDPCFFCDVCFRMLHYDSEGNKLGEFLAYPYVDPGTFN
Regarding B7, the binding entry in test [4] is “binds”.

B8: SNAP43^(1-150), N-terminal His-TEV tagged NTD domain of SNAP43 (domain or fragment, UniProt Q16533 1-150)
chain: MGTPPGLQTDCEALLSRFQETDSVRFEDFTELWRNMKFGTIFCGRMRNLEKNMFTKEALALAWRYFLPPYTFQIRVGALYLLYGLYNTQLCQPKQKIRVALKDWDEVLKFQQDLVNAQHFDAAYIFRKLRLDRAFHFTAMPKLLSYRMKK
Take B8: the binding entry in test [6] and in test [7] was “binds” throughout.

B9: SNAP50^(141-411) (lasso domain deletion), N-terminal Strep tag (domain or fragment, UniProt Q92966 141-411)
chain: EETITIDRACRQETFVYEMESHAIGKKPENSADMIEEGELILSVNILYPVIFHKHKEHKPYQTMLVLGSQKLTQLRDSIRCVSDLQIGGEFSNTPDQAPEHISKDLYKSAFFYFEGTFYNDKRYPECRDLSRTIIEWSESHDRGYGKFQTARMEDFTFNDLCIKLGFPYLYCHQGDCEHVIVITDIRLVHHDDCLDRTLYPLLIKKHWLWTRKCFVCKMYTARWVTNNDSFAPEDPCFFCDVCFRMLHYDSEGNKLGEFLAYPYVDPGTFN
On to B9, for which, in test [4], the binding entry is “binds”.

B10: SNAP43 (residues 1-268), N-terminal 6xHis tagged (domain or fragment, UniProt Q16533 1-268)
chain: MGTPPGLQTDCEALLSRFQETDSVRFEDFTELWRNMKFGTIFCGRMRNLEKNMFTKEALALAWRYFLPPYTFQIRVGALYLLYGLYNTQLCQPKQKIRVALKDWDEVLKFQQDLVNAQHFDAAYIFRKLRLDRAFHFTAMPKLLSYRMKKKIHRAEVTEEFKDPSDRVMKLITSDVLEEMLNVHDHYQNMKHVISVDKSKPDKALSLIKDDFFDNIKNIVLEHQQWHKDRKNPSLKSKTNDGEEKMEGNSQETERCERAESLAKIKSK
In the case of B10, the binding result is “binds” in test [3] and “binds” with SNAP50, untagged (human).
